Data as given in the supplement of paper PMC4604168 (melanoma cell lines).
This is one part of the list. Many values rest on one well or one pass, so single values are uncertain.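 The apoptosis fraction was the count of cleaved-PARP antibody-stained nuclei relative to all DNA-stained nuclei, imaged in 1,536-well plates. Screening doses were set so most cells survived, and baseline and induced cleaved-PARP levels vary greatly across cell lines.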

Experiments:
Assay in all cases: cleaved PARP positive nuclei fraction relative to DMSO control; melanoma cells; higher = more apoptosis
Conditions in all cases: library dose: low library concentration; 72 h
MZ2-MEL = system: MZ2-MEL
MeWo = system: MeWo
RPMI7951 = system: RPMI7951
RVH-421 = system: RVH-421
SkMel28 = system: SkMel28
SkMel2 = system: SkMel2
SkMel30 = system: SkMel30
SkMel5 = system: SkMel5
UACC257 = system: UACC257
UACC62 = system: UACC62
WM115 = system: WM115
WM1716 = system: WM1716
WM1745 = system: WM1745
WM3526 = system: WM3526
WM3619 = system: WM3619
WM451Lu = system: WM451Lu

SMILES	cleaved PARP positive nuclei fraction (MZ2-MEL) [%]	cleaved PARP positive nuclei fraction (MeWo) [%]	cleaved PARP positive nuclei fraction (RPMI7951) [%]	cleaved PARP positive nuclei fraction (RVH-421) [%]	cleaved PARP positive nuclei fraction (SkMel28) [%]	cleaved PARP positive nuclei fraction (SkMel2) [%]	cleaved PARP positive nuclei fraction (SkMel30) [%]	cleaved PARP positive nuclei fraction (SkMel5) [%]	cleaved PARP positive nuclei fraction (UACC257) [%]	cleaved PARP positive nuclei fraction (UACC62) [%]	cleaved PARP positive nuclei fraction (WM115) [%]	cleaved PARP positive nuclei fraction (WM1716) [%]	cleaved PARP positive nuclei fraction (WM1745) [%]	cleaved PARP positive nuclei fraction (WM3526) [%]	cleaved PARP positive nuclei fraction (WM3619) [%]	cleaved PARP positive nuclei fraction (WM451Lu) [%]
CN1CCN(c2ccc3nc(-c4c(N)c5c(F)cccc5[nH]c4=O)[nH]c3c2)CC1 [Dovitinib] + N#Cc1c(O)c2c(-c3ccc(-c4ccccc4O)cc3)csc2[nH]c1=O [A769662] (first compound 0.1 µM, partner dose 2 µM)	121	94	76.8	71.7	146	81	154	176	125	128	243	158	96.4	116	112	98.1
Cc1cc(Nc2cc(N3CCN(C)CC3)nc(/C=C/c3ccccc3)n2)n[nH]1 + Oc1nc(-c2ccc(C(F)(F)F)cc2)nc2c1CSCC2 [XAV939] (first compound 0.04 µM, partner dose 2 µM)	77.6	29.3	90.5	62	55	111	353	88.5	263	36.6	216	178	109	70.5	92.8	74.3
CS(=O)(=O)CCNCc1ccc(-c2ccc3ncnc(Nc4ccc(OCc5cccc(F)c5)c(Cl)c4)c3c2)o1 [lapatinib] + O=C(O)c1ccc(-c2c[nH]c3ncc(-c4ccccc4)cc23)cc1C1CCCC1 [GSK650394] (first compound 0.8 µM, partner dose 0.16 µM)	146	94.7	38.1	70.6	69.7	67.1	394	140	60.7	182	115	54.6	81.1	41.1	78.4	125
C[C@@H](Oc1cc(-c2cnn(C3CCNCC3)c2)cnc1N)c1c(Cl)ccc(F)c1Cl [Crizotinib] + COc1cc(N2CCC(N3CCN(C)CC3)CC2)ccc1Nc1ncc(Cl)c(Nc2ccccc2S(=O)(=O)C(C)C)n1 [NVP-TAE684] (first compound 0.2 µM, partner dose 0.08 µM)	79.7	179	36.7	231	204	71.6	67.4	93.7	220	89.7	79.6	42.1	99.3	53.3	66	112
C=C(c1ccc(C(=O)O)cc1)c1cc2c(cc1C)C(C)(C)CCC2(C)C [Bexarotene] + CN(C)S(=O)(=O)c1ccc2c(c1)/C(=C/c1cc3c([nH]1)CCCC3)C(=O)N2 [SU6656] (first compound 2 µM, partner dose 0.4 µM)	57.5	104	69	87.2	25.6	87.1	60	69.1	57.8	9.92	90.3	7.97	89.5	631	98.2	144
CN1CCN(c2ccc3nc(-c4c(N)c5c(F)cccc5[nH]c4=O)[nH]c3c2)CC1 [Dovitinib] + O=C(CCCCCCC(=O)Nc1ccccc1)NO [vorinostat] (first compound 0.1 µM, partner dose 0.08 µM)	69.2	161	45.7	77.4	88	95.9	126	56.4	56.4	42.7	92.4	29.8	96.9	142	83.2	88.9
CC(C)C[C@H](NC(=O)[C@H](Cc1ccccc1)NC(=O)c1cnccn1)B(O)O [Bortezomib] + O=C(Nc1ccccc1)c1cc([N+](=O)[O-])ccc1Cl [GW9662] (first compound 0.001 µM, partner dose 2 µM)	204	70	62.9	101	172	67.9	111	80.7	255	134	280	2340	150	160	239	37.9
Nc1nc(F)nc2c1ncn2[C@@H]1O[C@H](CO)[C@@H](O)[C@@H]1O [fludarabine] + O=C(Nc1ccccc1)c1cc([N+](=O)[O-])ccc1Cl [GW9662] (first compound 0.2 µM, partner dose 2 µM)	66.6	472	124	26.7	158	470	182	297	147	97.6	79.8	155	79.9	764	83.2	448
Nc1ncn([C@H]2C[C@H](O)[C@@H](CO)O2)c(=O)n1 [decitabine] + O=C1NC(=O)/C(=C/c2ccc(-c3ccc(F)cc3O)o2)S1 [AS252424] (first compound 0.1 µM, partner dose 1 µM)	105	93.9	167	146	138	64.1	48.8	69.3	122	90.8	197	60.8	100	72.1	127	43.4
O=C(O)c1ccc2c(c1)nc(Nc1cccc(Cl)c1)c1ccncc12 + O=C(O)C(=O)Nc1sc2c(c1C(=O)O)CCNC2 [TCS401] (first compound 0.4 µM, partner dose 1.66667 µM)	113	49.6	67.5	49.6	105	79.1	21.3	71.1	139	76.2	81.9	113	97.6	41.1	86.6	50.5
Nc1nc(F)nc2c1ncn2[C@@H]1O[C@H](CO)[C@@H](O)[C@@H]1O [fludarabine] + COc1cc(Nc2ncc(F)c(Nc3ccc4c(n3)NC(=O)C(C)(C)O4)n2)cc(OC)c1OC [Tamatinib] (first compound 0.2 µM, partner dose 0.4 µM)	70.5	370	201	25.6	90.3	271	205	160	181	60.5	117	92.5	129	130	101	31.7
Nc1ccn([C@@H]2O[C@H](CO)[C@@H](O)C2(F)F)c(=O)n1 [gemcitabine] + CN(C)S(=O)(=O)c1ccc2c(c1)/C(=C/c1cc3c([nH]1)CCCC3)C(=O)N2 [SU6656] (first compound 0.0004 µM, partner dose 0.4 µM)	199	115	95.4	68.2	273	54.7	174	48.8	89.5	55.2	44.1	51.3	122	118	110	95.3
CN1CCN(c2ccc3nc(-c4c(N)c5c(F)cccc5[nH]c4=O)[nH]c3c2)CC1 [Dovitinib] + Cn1cncc1[C@@](N)(c1ccc(Cl)cc1)c1ccc2c(c1)c(-c1cccc(Cl)c1)cc(=O)n2C [tipifarnib] (first compound 0.1 µM, partner dose 0.01 µM)	70.5	234	154	73.7	42.7	73.4	85.5	33.2	199	138	220	76.1	111	86.9	87.5	91.5
Cc1cc(Nc2cc(N3CCN(C)CC3)nc(/C=C/c3ccccc3)n2)n[nH]1 + CCN(CC)CCCCNc1ncc2cc(-c3cc(OC)cc(OC)c3)c(NC(=O)NC(C)(C)C)nc2n1 [PD173074] (first compound 0.04 µM, partner dose 0.1 µM)	50.8	70.7	77.2	93.4	70.6	71.3	39.7	152	27.7	60.5	85.5	61.8	91.4	32	84.4	72.5
Cn1c(=O)n(-c2ccc(C(C)(C)C#N)cc2)c2c3cc(-c4cnc5ccccc5c4)ccc3ncc21 + N#Cc1c(O)c2c(-c3ccc(-c4ccccc4O)cc3)csc2[nH]c1=O [A769662] (first compound 0.004 µM, partner dose 2 µM)	115	138	127	167	201	112	59.6	72.4	39.4	144	141	51.6	80.2	407	117	807
CCCS(=O)(=O)Nc1ccc(F)c(C(=O)c2c[nH]c3ncc(Cl)cc23)c1F + O=S(=O)(c1ccccc1)N(CC(F)(F)F)c1ccc(C(O)(C(F)(F)F)C(F)(F)F)cc1 [T0901317] (first compound 0.08 µM, partner dose 1.4 µM)	28.8	104	99.3	148	176	93.9	26.6	167	106	96.9	113	163	99.4	75.6	97.3	124
Nc1nc(F)nc2c1ncn2[C@@H]1O[C@H](CO)[C@@H](O)[C@@H]1O [fludarabine] + Oc1cc(-c2nc(-c3ccccc3)[nH]c2-c2ccncc2)ccc1Cl [L779450] (first compound 0.2 µM, partner dose 0.2 µM)	74.6	991	96	169	34.6	1110	561	434	145	97.1	119	22.8	92.1	514	112	771
CS(=O)(=O)CCNCc1ccc(-c2ccc3ncnc(Nc4ccc(OCc5cccc(F)c5)c(Cl)c4)c3c2)o1 [lapatinib] + c1cc(-c2cnn3cc(-c4ccc(OCCN5CCCCC5)cc4)cnc23)ccn1 [Dorsomorphin] (first compound 0.8 µM, partner dose 0.4 µM)	116	128	83.2	25.1	28.3	110	77.4	97.8	207	132	65.7	88.1	110	71.4	84.9	59.4

Record cards (already shown). Order of values: cleaved PARP positive nuclei fraction (MZ2-MEL) [%]	cleaved PARP positive nuclei fraction (MeWo) [%]	cleaved PARP positive nuclei fraction (RPMI7951) [%]	cleaved PARP positive nuclei fraction (RVH-421) [%]	cleaved PARP positive nuclei fraction (SkMel28) [%]	cleaved PARP positive nuclei fraction (SkMel2) [%]	cleaved PARP positive nuclei fraction (SkMel30) [%]	cleaved PARP positive nuclei fraction (SkMel5) [%]	cleaved PARP positive nuclei fraction (UACC257) [%]	cleaved PARP positive nuclei fraction (UACC62) [%]	cleaved PARP positive nuclei fraction (WM115) [%]	cleaved PARP positive nuclei fraction (WM1716) [%]	cleaved PARP positive nuclei fraction (WM1745) [%]	cleaved PARP positive nuclei fraction (WM3526) [%]	cleaved PARP positive nuclei fraction (WM3619) [%]	cleaved PARP positive nuclei fraction (WM451Lu) [%]
Nc1nc(F)nc2c1ncn2[C@@H]1O[C@H](CO)[C@@H](O)[C@@H]1O [fludarabine] + Oc1cc(-c2nc(-c3ccccc3)[nH]c2-c2ccncc2)ccc1Cl [L779450] (first compound 0.2 µM, partner dose 0.2 µM) as listed: 74.6	991	96	169	34.6	1110	561	434	145	97.1	119	22.8	92.1	514	112	771
CC(C)C[C@H](NC(=O)[C@H](Cc1ccccc1)NC(=O)c1cnccn1)B(O)O [Bortezomib] + O=C(Nc1ccccc1)c1cc([N+](=O)[O-])ccc1Cl [GW9662] (first compound 0.001 µM, partner dose 2 µM) as listed: 204	70	62.9	101	172	67.9	111	80.7	255	134	280	2340	150	160	239	37.9
